Measured data: PubChem BioAssay AID602196 (INSERM, 2012)

Assay: 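Knock-downs that protect lung cancer cells from cisplatin or sensitise them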
Cell system: human A549 lung cancer cells
Reagent: siRNA pair against human genes
Time to read-out: 48 h transfection before cisplatin; time from cisplatin to read-out not stated
Treatment: cisplatin at a dose killing half of control-siRNA cells; exact dose and duration not given
Measured: 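Cisplatin cell death as a shift from the 50% death seen with control siRNA; siRNAs toxic or growth-blocking alone scored 0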
Reading the numbers: two-siRNA summed score (-2 to +2): higher = both siRNAs protect from cisplatin killing; -2 means both sensitise
Rule for the call: 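Each siRNA scores 0 if harmful alone by LDH or WST-1, otherwise +1 if it reduces and -1 if it increases cisplatin killing; a gene is active when both siRNAs agree (sum +2 or -2)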
Calls: active = both siRNAs shift cisplatin killing the same way; inactive = no consistent shift, or siRNA harmful alone
This is an unselected part of about 23,000 reagents tested. Over the whole deposit, 455 (2%) got an active call. 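Active includes both protection and sensitisation; some change values fall well beyond the stated -50 to +50 range.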 Entries without a mark were called inactive. Not all columns of the deposit are shown. The record does not give: the amount of reagent.

For MOSPD2 [SID131505251], what was measured?
two-siRNA summed score (-2 to +2): 0

For LOC387932 [SID131518326], what does the deposit list?
two-siRNA summed score (-2 to +2): 0

For DDA1 [SID131511626], what does the deposit list?
two-siRNA summed score (-2 to +2): 0

Which result is listed for LOC392217 [SID131522111]?
two-siRNA summed score (-2 to +2): 1

With LOC441092 [SID131512254], what was measured?
two-siRNA summed score (-2 to +2): 0

For SV2A [SID131509471], what does the deposit list?
two-siRNA summed score (-2 to +2): 0

Which result is listed for IFT38 [SID131501112]?
two-siRNA summed score (-2 to +2): -1

For LOC440911 [SID131516636], what was measured?
two-siRNA summed score (-2 to +2): 0

With ECHDC1 [SID131516822], what does the deposit list?
two-siRNA summed score (-2 to +2): 0

What is on record for GTSF1L [SID131520506]?
two-siRNA summed score (-2 to +2): 1

With CYC1 [SID131500674], how do the results read?
two-siRNA summed score (-2 to +2): -1

With LOC440054 [SID131505487], what was measured?
two-siRNA summed score (-2 to +2): 0

How did the screen score NLRC5 [SID131518521]?
two-siRNA summed score (-2 to +2): 0

How did the screen score MAK16 [SID131509565]?
two-siRNA summed score (-2 to +2): 0

With HFE [SID131505272], what does the deposit list?
two-siRNA summed score (-2 to +2): 0

With TMTC4 [SID131512628], how do the results read?
two-siRNA summed score (-2 to +2): 0

For KIAA0040 [SID131505539], how do the results read?
two-siRNA summed score (-2 to +2): 0

What did the screen give for MGAT2 [SID131506759]?
two-siRNA summed score (-2 to +2): 0

Which result is listed for MGAT2 [SID131514118]?
two-siRNA summed score (-2 to +2): 0

What is on record for STEAP2 [SID131522920]?
two-siRNA summed score (-2 to +2): 2 (active)

What is on record for LOC390919 [SID131511079]?
two-siRNA summed score (-2 to +2): 0

With LOC374973 [SID131506855], how do the results read?
two-siRNA summed score (-2 to +2): 0

For ZNF669 [SID131519607], what does the deposit list?
two-siRNA summed score (-2 to +2): 1

For PPTC7 [SID131512915], what was measured?
two-siRNA summed score (-2 to +2): 0

With KANK3 [SID131504887], what was measured?
two-siRNA summed score (-2 to +2): 0

Ordered by “two-siRNA summed score (-2 to +2)” (low to high): some entries from above.
MGAT2 [SID131506759] — two-siRNA summed score (-2 to +2) = 0
MGAT2 [SID131514118] — two-siRNA summed score (-2 to +2) = 0

Further results follow.
What did the screen give for KTI12 [SID131502622]?
two-siRNA summed score (-2 to +2): -1

What did the screen give for IDH1 [SID131501596]?
two-siRNA summed score (-2 to +2): -1

With RRM2 [SID131511594], what was measured?
two-siRNA summed score (-2 to +2): 0

What is on record for RRM2 [SID131515203]?
two-siRNA summed score (-2 to +2): 0

For TERT [SID131504927], what does the deposit list?
two-siRNA summed score (-2 to +2): 0

For SIGLEC9 [SID131501449], how do the results read?
two-siRNA summed score (-2 to +2): -1

With PELI3 [SID131519141], what does the deposit list?
two-siRNA summed score (-2 to +2): 1

With DEUP1 [SID131505104], what does the deposit list?
two-siRNA summed score (-2 to +2): 0

With RBM5 [SID131502007], what does the deposit list?
two-siRNA summed score (-2 to +2): -1

For PARD6B [SID131514160], how do the results read?
two-siRNA summed score (-2 to +2): 0

With BIRC2 [SID131507057], what does the deposit list?
two-siRNA summed score (-2 to +2): 0

Which result is listed for TRIM49B [SID131506808]?
two-siRNA summed score (-2 to +2): 0

For CRYBA2 [SID131502769], how do the results read?
two-siRNA summed score (-2 to +2): -1

How did the screen score TRMT5 [SID131505995]?
two-siRNA summed score (-2 to +2): 0

With ATP8A2 [SID131512083], how do the results read?
two-siRNA summed score (-2 to +2): 0
